# Assay results reported in the supplement of paper PMC8728848.
# Some of the results follow.
# B1: Vd7LysM (Verticillium dahliae) (protein)
# chain: RRGPEPKYPPAAGTSSYCSYWVDYEGDKSCSRVLEDNVVVLKDFARWNPTVGADCSGIKAGNSYCVEAFGEPEPIEVTTTTRAATTTTQPTATTTTFANGIATPQPTQSGMVTNCNKFHWIAEGVSCSQVISFQKITLADFVKWNPSVKSDCSGMWAGVNVCVGVVGSSTDTAKPTTTAPSNGVVTPQPTQPSMVTNCNKFHWIAKGVTCQQVISYQKISLADFVKWNPSVLSDCSGMWAEVQVCVGVIGSTPTTLATTTTTAGNGVSTPLPTQPGMVTNCAKFHWVAKGVTCNQIYSFQKITLEQFVSYNPTVKSDCSGMQAEVQVCVGLIAGTTPTTTRPPTTTAPGNGVSTPQPTQPGMVTNCAKFHWVAKGVTCNQIYSFQKITLEQFVSFNPTVKSDCTGMQAEVNVCVGLIGGNPTPTQTGNGIATPTPIQPGMVSNCKKFHWIAQGVTCQQVISFQKITLADFVKWNTGVGSDCRTMWAETNVCVGV
# Legend:
# Test in all cases: glycan array binding signal (z-score within array); higher = stronger binding
# Conditions in all cases: glycan notation: IUPAC condensed, linker removed
# [1] = molecular target: Man(a1-2)Man(a1-3)[Man(a1-2)Man(a1-6)]Man(a1-6)[Man(a1-2)Man(a1-2)Man(a1-3)]Man
# Method in brief: (§1)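 The binding signal is a Z-score computed within each array and averaged over linkers. Arrays of the same protein sequence at different concentrations or buffers were also averaged together. Data originate from 3228 arrays in the Consortium for Functional Glycomics database, kept only where the protein sequence was available.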
# [2] = molecular target: Man(a1-2)Man(a1-3)[Man(a1-2)Man(a1-6)]Man(a1-6)[Man(a1-2)Man(a1-2)Man(a1-3)]Man(b1-4)GlcNAc(b1-4)GlcNAc
# Method in brief: as §1
# [3] = molecular target: Man(a1-2)Man(a1-3)[Man(a1-6)]Man(a1-6)[Man(a1-2)Man(a1-3)]Man(b1-4)GlcNAc(b1-4)GlcNAc
# Method in brief: as §1
# [4] = molecular target: Man(a1-2)Man(a1-6)[Man(a1-3)]Man(a1-6)[Man(a1-2)Man(a1-2)Man(a1-3)]Man
# Method in brief: as §1
# [5] = molecular target: Man(a1-2)Man(a1-6)[Man(a1-3)]Man(a1-6)[Man(a1-2)Man(a1-2)Man(a1-3)]Man(b1-4)GlcNAc(b1-4)GlcNAc
# Method in brief: as §1
# Man(a1-3)[Man(a1-6)]Man = molecular target: Man(a1-3)[Man(a1-6)]Man
# Method in brief: as §1
# [6] = molecular target: Man(a1-3)[Man(a1-6)]Man(a1-6)[Man(a1-2)Man(a1-3)]Man(b1-4)GlcNAc(b1-4)GlcNAc
# Method in brief: as §1
# [7] = molecular target: Man(a1-3)[Man(a1-6)]Man(a1-6)[Man(a1-3)]Man
# Method in brief: as §1
# [8] = molecular target: Man(a1-3)[Man(a1-6)]Man(a1-6)[Man(a1-3)]Man(b1-4)GlcNAc(b1-4)GlcNAc
# Method in brief: as §1
# [9] = molecular target: Man(a1-3)[Man(a1-6)]Man(b1-4)GlcNAc(b1-4)GlcNAc
# Method in brief: as §1
# [10] = molecular target: Man(a1-3)[Man(a1-6)]Man(b1-4)GlcNAc(b1-4)[Fuc(a1-6)]GlcNAc
# Method in brief: as §1
# Man(a1-6)Man = molecular target: Man(a1-6)Man
# Method in brief: as §1
# Man(b1-4)GlcNAc = molecular target: Man(b1-4)GlcNAc
# Method in brief: as §1
# MurNAc(b1-4)GlcNAc = molecular target: MurNAc(b1-4)GlcNAc
# Method in brief: as §1
# Neu5Ac(a2-3)Gal = molecular target: Neu5Ac(a2-3)Gal
# Method in brief: as §1
# [11] = molecular target: Neu5Ac(a2-3)Gal(b1-3)GalNAc
# Method in brief: as §1
# [12] = molecular target: Neu5Ac(a2-3)Gal(b1-3)GalNAc(b1-3)Gal(a1-4)Gal(b1-4)Glc
# Method in brief: as §1
# [13] = molecular target: Neu5Ac(a2-3)Gal(b1-3)GalNAc(b1-4)Gal(b1-4)Glc
# Method in brief: as §1
# [14] = molecular target: Neu5Ac(a2-3)Gal(b1-3)GalNAc(b1-4)[Neu5Ac(a2-3)]Gal(b1-4)Glc
# Method in brief: as §1
# [15] = molecular target: Neu5Ac(a2-3)Gal(b1-3)GalNAc(b1-4)[Neu5Ac(a2-8)Neu5Ac(a2-3)]Gal(b1-4)Glc
# Method in brief: as §1
# [16] = molecular target: Neu5Ac(a2-3)Gal(b1-3)GalNAc6S
# Method in brief: as §1
# [17] = molecular target: Neu5Ac(a2-3)Gal(b1-3)GlcNAc
# Method in brief: as §1
# [18] = molecular target: Neu5Ac(a2-3)Gal(b1-3)GlcNAc(b1-2)Man
# Method in brief: as §1
# [19] = molecular target: Neu5Ac(a2-3)Gal(b1-3)GlcNAc(b1-2)Man(a1-3)[GlcNAc(b1-4)][Neu5Ac(a2-3)Gal(b1-3)GlcNAc(b1-2)Man(a1-6)]Man(b1-4)GlcNAc(b1-4)GlcNAc
# Method in brief: as §1
# [20] = molecular target: Neu5Ac(a2-3)Gal(b1-3)GlcNAc(b1-2)Man(a1-3)[Neu5Ac(a2-3)Gal(b1-3)GlcNAc(b1-2)Man(a1-6)]Man(b1-4)GlcNAc(b1-4)GlcNAc
# Method in brief: as §1
# [21] = molecular target: Neu5Ac(a2-3)Gal(b1-3)GlcNAc(b1-2)[Neu5Ac(a2-3)Gal(b1-3)GlcNAc(b1-4)]Man(a1-6)[Neu5Ac(a2-3)Gal(b1-3)GlcNAc(b1-2)Man(a1-3)]Man(b1-4)GlcNAc(b1-4)GlcNAc
# Method in brief: as §1
# [22] = molecular target: Neu5Ac(a2-3)Gal(b1-3)GlcNAc(b1-3)Gal(b1-3)GlcNAc
# Method in brief: as §1
# [23] = molecular target: Neu5Ac(a2-3)Gal(b1-3)GlcNAc(b1-3)Gal(b1-4)GlcNAc
# Method in brief: as §1
# [24] = molecular target: Neu5Ac(a2-3)Gal(b1-3)GlcNAc(b1-3)GalNAc
# Method in brief: as §1
# [25] = molecular target: Neu5Ac(a2-3)Gal(b1-3)GlcNAc(b1-6)GalNAc
# Method in brief: as §1
# [26] = molecular target: Neu5Ac(a2-3)Gal(b1-3)GlcNAc6S
# Method in brief: as §1
# [27] = molecular target: Neu5Ac(a2-3)Gal(b1-3)[Fuc(a1-4)]GlcNAc
# Method in brief: as §1
# [28] = molecular target: Neu5Ac(a2-3)Gal(b1-3)[Fuc(a1-4)]GlcNAc(b1-3)Gal(b1-3)[Fuc(a1-4)]GlcNAc
# Method in brief: as §1
# [29] = molecular target: Neu5Ac(a2-3)Gal(b1-3)[Fuc(a1-4)]GlcNAc(b1-3)Gal(b1-4)[Fuc(a1-3)]GlcNAc
# Method in brief: as §1
# [30] = molecular target: Neu5Ac(a2-3)Gal(b1-3)[GlcNAc(b1-6)]GalNAc
# Method in brief: as §1
# [31] = molecular target: Neu5Ac(a2-3)Gal(b1-3)[Neu5Ac(a2-6)]GalNAc
# Method in brief: as §1
# [32] = molecular target: Neu5Ac(a2-3)Gal(b1-3)[Neu5Ac(a2-6)]GlcNAc(b1-3)[Fuc(a1-3)[Gal(b1-4)]GlcNAc(b1-6)]Gal(b1-4)Glc
# Method in brief: as §1
# [33] = molecular target: Neu5Ac(a2-3)Gal(b1-3)]Neu5Ac(a2-3)Gal(b1-4)]GlcNAc
# Method in brief: as §1
# Neu5Ac(a2-3)Gal(b1-4)Glc = molecular target: Neu5Ac(a2-3)Gal(b1-4)Glc
# Method in brief: as §1
# [34] = molecular target: Neu5Ac(a2-3)Gal(b1-4)GlcNAc
# Method in brief: as §1
# [35] = molecular target: Neu5Ac(a2-3)Gal(b1-4)GlcNAc(b1-2)Man
# Method in brief: as §1
# [36] = molecular target: Neu5Ac(a2-3)Gal(b1-4)GlcNAc(b1-2)Man(a1-3)[GlcNAc(b1-4)][Neu5Ac(a2-3)Gal(b1-4)GlcNAc(b1-2)Man(a1-6)]Man(b1-4)GlcNAc(b1-4)GlcNAc
# Method in brief: as §1
# [37] = molecular target: Neu5Ac(a2-3)Gal(b1-4)GlcNAc(b1-2)Man(a1-3)[Neu5Ac(a2-3)Gal(b1-4)GlcNAc(b1-2)Man(a1-6)]Man(b1-4)GlcNAc(b1-4)GlcNAc
# Method in brief: as §1
# [38] = molecular target: Neu5Ac(a2-3)Gal(b1-4)GlcNAc(b1-2)Man(a1-3)[Neu5Ac(a2-3)Gal(b1-4)GlcNAc(b1-2)Man(a1-6)]Man(b1-4)GlcNAc(b1-4)[Fuc(a1-6)]GlcNAc
# Method in brief: as §1
# [39] = molecular target: Neu5Ac(a2-3)Gal(b1-4)GlcNAc(b1-2)Man(a1-3)[Neu5Ac(a2-6)Gal(b1-4)GlcNAc(b1-2)Man(a1-6)]Man(b1-4)GlcNAc(b1-4)GlcNAc
# Method in brief: as §1
binder,measurement,setting,value
B1,glycan array binding signal (z-score),[1],-1.09
same,glycan array binding signal (z-score),[2],-0.549
same,glycan array binding signal (z-score),[3],0.643
same,glycan array binding signal (z-score),[4],-1.1
same,glycan array binding signal (z-score),[5],-1.7
same,glycan array binding signal (z-score),Man(a1-3)[Man(a1-6)]Man,-0.828
same,glycan array binding signal (z-score),[6],0.416
same,glycan array binding signal (z-score),[7],0.074
same,glycan array binding signal (z-score),[8],-0.516
same,glycan array binding signal (z-score),[9],0.486
same,glycan array binding signal (z-score),[10],-1.68
same,glycan array binding signal (z-score),Man(a1-6)Man,1.36
same,glycan array binding signal (z-score),Man(b1-4)GlcNAc,1.28
same,glycan array binding signal (z-score),MurNAc(b1-4)GlcNAc,-0.59
same,glycan array binding signal (z-score),Neu5Ac(a2-3)Gal,-0.062
same,glycan array binding signal (z-score),[11],0.266
same,glycan array binding signal (z-score),[12],-0.295
same,glycan array binding signal (z-score),[13],-1.53
same,glycan array binding signal (z-score),[14],-1.04
same,glycan array binding signal (z-score),[15],-1.16
same,glycan array binding signal (z-score),[16],-0.342
same,glycan array binding signal (z-score),[17],-0.499
same,glycan array binding signal (z-score),[18],-1.16
same,glycan array binding signal (z-score),[19],-0.378
same,glycan array binding signal (z-score),[20],0.034
same,glycan array binding signal (z-score),[21],0.591
same,glycan array binding signal (z-score),[22],1.7
same,glycan array binding signal (z-score),[23],1.24
same,glycan array binding signal (z-score),[24],-0.664
same,glycan array binding signal (z-score),[25],-0.432
same,glycan array binding signal (z-score),[26],-0.528
same,glycan array binding signal (z-score),[27],-0.158
same,glycan array binding signal (z-score),[28],-0.022
same,glycan array binding signal (z-score),[29],-0.443
same,glycan array binding signal (z-score),[30],-0.402
same,glycan array binding signal (z-score),[31],-0.762
same,glycan array binding signal (z-score),[32],-0.198
same,glycan array binding signal (z-score),[33],-0.931
same,glycan array binding signal (z-score),Neu5Ac(a2-3)Gal(b1-4)Glc,0.515
same,glycan array binding signal (z-score),[34],0.313
same,glycan array binding signal (z-score),[35],0.356
same,glycan array binding signal (z-score),[36],-0.193
same,glycan array binding signal (z-score),[37],-0.705
same,glycan array binding signal (z-score),[38],1.45
same,glycan array binding signal (z-score),[39],-0.13

# Rewritten tab-delimited: part of the list above.
binder	measurement	setting	value
B1	glycan array binding signal (z-score)	[7]	0.074
same	glycan array binding signal (z-score)	[8]	-0.516
same	glycan array binding signal (z-score)	[9]	0.486
same	glycan array binding signal (z-score)	[10]	-1.68
